In paper doi:10.1101/2021.10.12.464076:
No constants are given. Whether binding was seen depends on the method and setting. Binding seen in cells or lysates may run through a third protein. Some binding calls cover weakened binding; strength is not graded here. For some of these results: Tags and fused reporters may be left off the sequences shown.

Sequences of proteins named here, by UniProt entry; tags and fusion partners are left off.
UniProt P20585: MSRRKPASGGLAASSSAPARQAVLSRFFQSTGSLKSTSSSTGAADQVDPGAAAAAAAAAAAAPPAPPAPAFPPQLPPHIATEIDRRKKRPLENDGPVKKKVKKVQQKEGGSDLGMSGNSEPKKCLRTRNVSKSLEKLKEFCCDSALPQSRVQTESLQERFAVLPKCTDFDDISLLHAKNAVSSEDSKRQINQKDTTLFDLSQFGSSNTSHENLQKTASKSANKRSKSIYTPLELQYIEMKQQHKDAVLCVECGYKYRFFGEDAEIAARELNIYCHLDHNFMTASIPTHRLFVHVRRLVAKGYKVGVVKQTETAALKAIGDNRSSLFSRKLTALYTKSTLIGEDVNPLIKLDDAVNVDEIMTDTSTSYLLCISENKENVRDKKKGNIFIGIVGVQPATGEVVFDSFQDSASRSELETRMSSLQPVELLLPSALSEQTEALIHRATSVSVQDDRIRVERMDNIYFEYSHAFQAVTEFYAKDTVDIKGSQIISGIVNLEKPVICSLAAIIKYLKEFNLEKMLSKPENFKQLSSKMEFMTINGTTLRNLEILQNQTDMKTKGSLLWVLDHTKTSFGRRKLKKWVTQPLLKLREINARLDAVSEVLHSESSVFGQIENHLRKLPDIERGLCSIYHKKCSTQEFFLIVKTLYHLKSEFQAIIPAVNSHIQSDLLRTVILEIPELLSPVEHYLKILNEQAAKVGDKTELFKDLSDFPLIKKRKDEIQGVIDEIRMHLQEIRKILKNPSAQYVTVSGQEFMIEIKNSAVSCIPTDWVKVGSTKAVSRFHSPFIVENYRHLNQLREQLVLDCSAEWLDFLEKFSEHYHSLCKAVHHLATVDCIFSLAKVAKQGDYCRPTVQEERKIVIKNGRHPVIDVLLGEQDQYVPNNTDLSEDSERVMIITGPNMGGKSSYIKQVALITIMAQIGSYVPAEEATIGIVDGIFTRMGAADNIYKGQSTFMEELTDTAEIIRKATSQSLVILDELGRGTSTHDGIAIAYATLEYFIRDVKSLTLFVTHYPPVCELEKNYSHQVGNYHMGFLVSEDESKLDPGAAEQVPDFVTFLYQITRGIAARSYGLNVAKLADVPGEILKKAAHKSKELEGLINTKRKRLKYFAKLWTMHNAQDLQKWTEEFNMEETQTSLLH
UniProt P52701: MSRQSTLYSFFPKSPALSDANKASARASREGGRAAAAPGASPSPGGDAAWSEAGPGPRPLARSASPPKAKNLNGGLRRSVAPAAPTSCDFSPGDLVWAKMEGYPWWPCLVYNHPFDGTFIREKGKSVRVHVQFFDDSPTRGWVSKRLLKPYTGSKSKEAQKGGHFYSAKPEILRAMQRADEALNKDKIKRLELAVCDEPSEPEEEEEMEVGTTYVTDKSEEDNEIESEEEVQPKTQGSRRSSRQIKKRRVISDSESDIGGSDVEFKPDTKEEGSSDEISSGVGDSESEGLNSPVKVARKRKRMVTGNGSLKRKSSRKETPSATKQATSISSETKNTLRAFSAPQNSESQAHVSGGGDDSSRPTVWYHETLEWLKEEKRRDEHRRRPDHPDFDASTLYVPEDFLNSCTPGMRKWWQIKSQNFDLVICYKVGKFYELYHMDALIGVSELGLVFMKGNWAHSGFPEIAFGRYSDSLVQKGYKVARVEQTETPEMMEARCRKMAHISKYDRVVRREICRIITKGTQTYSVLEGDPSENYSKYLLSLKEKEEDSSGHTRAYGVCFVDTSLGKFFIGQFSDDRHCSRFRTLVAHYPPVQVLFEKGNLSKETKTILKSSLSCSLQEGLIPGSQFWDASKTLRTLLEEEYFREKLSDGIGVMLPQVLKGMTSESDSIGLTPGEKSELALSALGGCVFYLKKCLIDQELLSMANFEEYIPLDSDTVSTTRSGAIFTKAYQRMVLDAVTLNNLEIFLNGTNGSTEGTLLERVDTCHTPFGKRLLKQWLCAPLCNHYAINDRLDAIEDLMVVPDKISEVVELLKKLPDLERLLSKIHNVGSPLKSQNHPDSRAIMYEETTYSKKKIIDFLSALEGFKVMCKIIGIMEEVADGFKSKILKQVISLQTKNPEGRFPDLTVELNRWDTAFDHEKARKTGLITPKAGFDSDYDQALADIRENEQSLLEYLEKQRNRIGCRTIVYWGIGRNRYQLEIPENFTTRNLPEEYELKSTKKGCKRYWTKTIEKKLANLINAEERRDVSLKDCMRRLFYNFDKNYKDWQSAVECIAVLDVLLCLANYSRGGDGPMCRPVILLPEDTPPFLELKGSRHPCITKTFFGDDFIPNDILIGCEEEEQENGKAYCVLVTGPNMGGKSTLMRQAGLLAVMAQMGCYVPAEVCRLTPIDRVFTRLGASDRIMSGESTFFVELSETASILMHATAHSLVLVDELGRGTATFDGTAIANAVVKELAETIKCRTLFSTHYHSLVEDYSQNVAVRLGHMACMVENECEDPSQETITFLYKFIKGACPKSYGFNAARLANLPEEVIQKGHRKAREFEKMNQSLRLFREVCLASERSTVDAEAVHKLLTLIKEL

T1: FLAG-SLX4 340-580aa fragment (human) (UniProt Q8IY92)
T1 sequence: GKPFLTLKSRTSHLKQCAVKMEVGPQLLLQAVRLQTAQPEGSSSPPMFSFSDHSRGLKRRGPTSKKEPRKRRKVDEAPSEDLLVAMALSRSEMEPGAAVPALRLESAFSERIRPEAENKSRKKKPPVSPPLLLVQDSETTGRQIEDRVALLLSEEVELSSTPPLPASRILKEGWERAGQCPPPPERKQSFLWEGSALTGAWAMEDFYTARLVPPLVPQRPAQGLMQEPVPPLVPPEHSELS

B1: endogenous XPF (protein, UniProt Q92889 1-916)
chain: MESGQPARRIAMAPLLEYERQLVLELLDTDGLVVCARGLGADRLLYHFLQLHCHPACLVLVLNTQPAEEEYFINQLKIEGVEHLPRRVTNEITSNSRYEVYTQGGVIFATSRILVVDFLTDRIPSDLITGILVYRAHRIIESCQEAFILRLFRQKNKRGFIKAFTDNAVAFDTGFCHVERVMRNLFVRKLYLWPRFHVAVNSFLEQHKPEVVEIHVSMTPTMLAIQTAILDILNACLKELKCHNPSLEVEDLSLENAIGKPFDKTIRHYLDPLWHQLGAKTKSLVQDLKILRTLLQYLSQYDCVTFLNLLESLRATEKAFGQNSGWLFLDSSTSMFINARARVYHLPDAKMSKKEKISEKMEIKEGEETKKELVLESNPKWEALTEVLKEIEAENKESEALGGPGQVLICASDDRTCSQLRDYITLGAEAFLLRLYRKTFEKDSKAEEVWMKFRKEDSSKRIRKSHKRPKDPQNKERASTKERTLKKKKRKLTLTQMVGKPEELEEEGDVEEGYRREISSSPESCPEEIKHEEFDVNLSSDAAFGILKEPLTIIHPLLGCSDPYALTRVLHEVEPRYVVLYDAELTFVRQLEIYRASRPGKPLRVYFLIYGGSTEEQRYLTALRKEKEAFEKLIREKASMVVPEEREGRDETNLDLVRGTASADVSTDTRKAGGQEQNGTQQSIVVDMREFRSELPSLIHRRGIDIEPVTLEVGDYILTPEMCVERKSISDLIGSLNNGRLYSQCISMSRYYKRPVLLIEFDPSKPFSLTSRGALFQEISSNDISSKLTLLTLHFPRLRILWCPSPHATAELFEELKQSKPQPDAATALAITADSETLPESEKYNPGPQDFLLKMPGVNAKNCRSLMHHVKNIAELAALSQDELTSILGNAANAKQLYDFIHTSFAEVVSKGKGKK

What was measured:
Assay in all cases: co-IP
[1] = biological target: endogenous SLX4 (human (endogenous in HeLa)) (UniProt Q8IY92)
[2] = biological target: FLAG-HA-SLX4 wild type (human) (UniProt Q8IY92)
FHA-SLX4ΔMSH2bd (human) = FHA-SLX4ΔMSH2bd (human) (UniProt Q8IY92)
[3] = biological target: T1, FLAG-SLX4 340-580aa fragment (human)

Molecule | binding [1] | binding [2] | binding (FHA-SLX4ΔMSH2bd (human)) | binding [3]
endogenous MSH3 (from UniProt P20585 1-1137) | binds | binds | – | –
endogenous MSH6 (from UniProt P52701 1-1360) | binds | binds | – | –
B1 | – | binds | binds | binds
